# Measured values published in PubChem BioAssay AID2551 (National Center for Advancing Translational Sciences (NCATS), 2010).
# Amino acid sequences for entries named in this document (tags omitted). A change or cut given only in a name is not applied to a line headed by its entry.
# UniProt P51450: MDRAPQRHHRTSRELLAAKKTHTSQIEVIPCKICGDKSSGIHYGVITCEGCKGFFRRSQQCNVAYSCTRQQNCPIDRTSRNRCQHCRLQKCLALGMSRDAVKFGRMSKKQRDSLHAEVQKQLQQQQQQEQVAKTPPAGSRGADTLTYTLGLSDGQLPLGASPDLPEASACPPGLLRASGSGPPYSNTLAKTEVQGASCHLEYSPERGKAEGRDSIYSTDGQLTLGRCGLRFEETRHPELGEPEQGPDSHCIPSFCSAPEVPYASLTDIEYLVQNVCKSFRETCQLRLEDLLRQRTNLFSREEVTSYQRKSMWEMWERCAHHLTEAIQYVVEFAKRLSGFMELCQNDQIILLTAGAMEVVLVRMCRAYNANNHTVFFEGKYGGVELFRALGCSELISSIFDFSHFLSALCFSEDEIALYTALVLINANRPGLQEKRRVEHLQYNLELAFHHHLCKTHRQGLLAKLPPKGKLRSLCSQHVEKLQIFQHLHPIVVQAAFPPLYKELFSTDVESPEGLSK
# About 17,000 (5.5%) of roughly 310,000 compounds were called active. This list was built around the results that the source calls inconclusive (neither active nor inactive); the mix of calls is not that of the screen. Calls come from the whole dose curve; as a rule, active = well fitted inhibition curve with a large enough effect; inconclusive = small, poorly fitted or top-dose-only effect, or effect the other way; inactive = no such curve, though single readings can be large or run the other way. Potencies beside an inconclusive call are fits to weak or partial responses and may not hold up.
# Target: Nuclear receptor ROR-gamma (Mus musculus) (UniProt P51450)
# Experiment: qHTS for inhibitors of ROR gamma transcriptional activity; note: nearly all actives have a fitted effect of over 60% in size
# Conditions: Drosophila S2 Gal4-RORgamma UAS-luciferase reporter, 20 h; activity change, negative = inhibition: at 53.6 µM (top of the series)
# Procedure, shortened: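 Luminescence from a UAS-regulated Photinus luciferase reporter in stably transfected Drosophila Schneider cells is measured; decreased signal marks ROR gamma inhibition. Fusion expression is induced by 700 uM copper sulfate for 20 hr.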
# % is set by controls: 0 for no effect and ±100 for the full control effect; potency is the fitted concentration of half-maximal effect.
Compound,Potency,"activity change, negative = inhibition"
Cc1ccc(Nc2nc3ccccc3[nH]2)nc1,active: 5.01 µM,
O=C(NC1CCCCCCC1)c1ccco1,"inconclusive: 35.5 µM [activator, single point]",
COc1ccccc1OCC(=O)Nc1ccc(S(=O)(=O)Nc2onc(C)c2C)cc1,"inconclusive: 10 µM [inhibitor, partial curve]",
N#Cc1nc(-c2ccc(F)cc2)oc1N1CCCC1,"inconclusive: 11.2 µM [activator, partial curve, poor fit]",
CS(=O)(=O)Nc1ccc(C2=NN(S(C)(=O)=O)C(c3cccs3)C2)cc1 (stereo not drawn),"inconclusive: 12.6 µM [activator, partial curve]",
COc1ccc(N2Nc3n[nH]c(N)c3N2)cc1,"inconclusive: 0.0045 µM [activator, full curve, poor fit]",
O=C(O)CCSc1nc2ccccc2s1,active: 1.78 µM,
COc1cc(OC)c(NC(=O)CCNS(=O)(=O)c2cc(Br)cnc2N)cc1Cl,"inconclusive: 3.98 µM [inhibitor, single point]",
Cc1cccc(NC(=O)C2CCCN(S(=O)(=O)c3ccc4c(c3)oc(=O)n4C)C2)c1 (stereo not drawn),,inactive: 34.7%
COc1ccc(C2CC(=O)Oc3cc(C)c(Cl)c(C)c32)cc1 (stereo not drawn),"inconclusive: 1 µM [activator, full curve, poor fit]",
O=C(CC(Nc1ccccc1Cl)C(=O)O)c1ccccc1 (stereo not drawn),active: 7.08 µM,
COc1ccccc1CN1C(=O)[C@@H]2C(CCC(N)=O)NC3(C(=O)Nc4c3ccc(Cl)c4C)[C@@H]2C1=O (stereo partly drawn),,inactive: 3.86%
CCC(C)(C)NC(=O)C(c1ccccn1)N(C(=O)c1csnn1)c1ccc(C)cc1 (stereo not drawn),,inactive: 8.94%
O=C(NN=C1C2CC3CC(C2)CC1C3)c1ccccc1O,active: 12.6 µM,
O=S(=O)(Cc1noc(-c2ccc(OC(F)(F)F)cc2)n1)c1ccc(F)cc1,"inconclusive: 10 µM [activator, partial curve]",
CC1=CC(C)(C)N(S(=O)(=O)c2ccc(C)cc2)c2ccccc21,,inactive: -40.2%
Fc1ccc(SCCc2ccccn2)cc1,"inconclusive: 1 µM [activator, partial curve]",
Cc1nn2c3ccccc3n(CCN3CCCCC3)c2nc1=O,"inconclusive: 11.2 µM [inhibitor, partial curve, poor fit]",
CCN(C1CCCCC1)S(=O)(=O)c1ccc(C(=O)O)cc1,"inconclusive: 1.58 µM [inhibitor, partial curve]",
C=CCC(CC=C)(NC(=O)c1ccccc1C)c1ccccc1,,inactive: 6.05%
O=c1cc(-c2ccccc2)[nH]n1-c1ccc([N+](=O)[O-])cc1,"inconclusive: 35.5 µM [inhibitor, single point]",
Cc1ccccc1NC(=O)c1cccnc1,,inactive: 0.0091%
CC(=O)c1ccc(N2CCN(C(=O)C3CCN(S(=O)(=O)c4cccs4)CC3)CC2)cc1,"inconclusive: 35.5 µM [activator, single point]",
CN(Cc1ccco1)C(=O)C1CCN(c2nnc(-n3cccc3)s2)CC1,"inconclusive: 12.6 µM [activator, single point]",

Compound,Potency,"activity change, negative = inhibition"
Cn1c(-c2ccccc2)cnc1N,active: 12.6 µM,
CCOc1ccc(S(=O)(=O)NCc2ccccn2)c(C)c1C,,inactive: -39.4%
O=c1[nH]c(CSc2cccc[n+]2[O-])nc2ccccc12,"inconclusive: 11.2 µM [inhibitor, single point]",
Cc1c(O)ccc(/C=N/Nc2nc(-c3cccnc3)nc3ccccc23)c1O,active: 4.47 µM,
Cc1ccccc1-c1n[nH]c(=S)n1/N=C/c1ccc(-c2ccccc2Br)o1,"inconclusive: 2.82 µM [inhibitor, full curve]",
Cc1ccccc1NC(=O)C1CCCN(S(=O)(=O)c2cnc[nH]2)C1 (stereo not drawn),,inactive: 18.4%
CC(=O)OCCNc1cc(SCc2ccco2)c2nonc2c1[N+](=O)[O-],active: 11.2 µM,
COc1ccc(OCC(=O)N/N=C(\C)c2cc3ccccc3o2)cc1,,inactive: -8.51%
CN(C)/C=N/c1cc(=O)n(C)c(=O)n1Cc1ccccc1,"inconclusive: 35.5 µM [inhibitor, single point]",
O=c1c2ccccc2ncn1-c1ccc(Cl)c(Cl)c1,"inconclusive: 0.251 µM [inhibitor, full curve, poor fit]",
O=c1c(-c2cccs2)nc2cnc(Oc3cccc(Cl)c3)nc2n1C1CC1,,inactive: 1.76%
COc1cccc(N(C(=O)Cn2nnc(-c3ccc(Cl)cc3)n2)C(C(=O)NCC2CCCO2)c2ccc(C)cc2)c1 (stereo not drawn),,inactive: -15.1%
CC(C)(C)C(=O)Nc1cccc(OC(F)(F)C(F)Cl)c1 (stereo not drawn),"inconclusive: 12.6 µM [activator, single point]",
C=C/C1=C/Cc2ccccc2C(C[N+](=O)[O-])C(C(=O)OC)(C(=O)OC)C1 (stereo not drawn),"inconclusive: 3.16 µM [inhibitor, single point]",
Cc1ccc(S(=O)(=O)Cc2ccc(C(=O)N3CCCCC3C)cc2)cc1 (stereo not drawn),,inactive: 16.6%
CC(OC(=O)c1oc2ccccc2c1CSC1CCCCC1)C(=O)NC(N)=O (stereo not drawn),"inconclusive: 20 µM [inhibitor, partial curve]",
CC1CCCCC1NC(=O)C(=O)NCC1CCCO1 (stereo not drawn),"inconclusive: 1 µM [activator, full curve, poor fit]",
CNC(=O)c1c(O)c2cccc3c2n(c1=O)CCC3,"inconclusive: 11.2 µM [inhibitor, partial curve, poor fit]",
O=c1c2cn[nH]c2nc(SCc2ccccc2F)n1-c1ccc(Br)cc1,"inconclusive: 17.8 µM [activator, single point]",
COc1ccc2c(c1)C(SCC(=O)NCCc1ccc(Cl)cc1)CC(C)(C)O2 (stereo not drawn),"inconclusive: 35.5 µM [activator, single point]",
Cn1nc(C(F)(F)F)c(-c2cccc(C(F)(F)F)c2)c1NC(=O)CSCC(=O)O,,inactive: 20.1%
Cc1cccc(C)c1OCCNC(=O)c1ccc2ccccc2n1,,inactive: 9.23%
COc1ccc(NS(=O)(=O)c2cccc(Cl)c2Cl)cc1S(=O)(=O)N1CCCCC1,"inconclusive: 35.5 µM [activator, single point]",
C=CCN(CC=C)C(=S)NC(=O)c1ccc(OC)c(Br)c1,active: 0.282 µM,

# By substructure, those above with an NH in an aromatic ring (seven)
Compound,Potency,"activity change, negative = inhibition"
Cc1ccc(Nc2nc3ccccc3[nH]2)nc1,active: 5.01 µM,
COc1ccc(N2Nc3n[nH]c(N)c3N2)cc1,"inconclusive: 0.0045 µM [activator, full curve, poor fit]",
O=c1cc(-c2ccccc2)[nH]n1-c1ccc([N+](=O)[O-])cc1,"inconclusive: 35.5 µM [inhibitor, single point]",
O=c1[nH]c(CSc2cccc[n+]2[O-])nc2ccccc12,"inconclusive: 11.2 µM [inhibitor, single point]",
Cc1ccccc1-c1n[nH]c(=S)n1/N=C/c1ccc(-c2ccccc2Br)o1,"inconclusive: 2.82 µM [inhibitor, full curve]",
Cc1ccccc1NC(=O)C1CCCN(S(=O)(=O)c2cnc[nH]2)C1 (stereo not drawn),,inactive: 18.4%
O=c1c2cn[nH]c2nc(SCc2ccccc2F)n1-c1ccc(Br)cc1,"inconclusive: 17.8 µM [activator, single point]",

# Looked up by structure from the list above, two records:
Compound,Potency,"activity change, negative = inhibition"
CC1CCCCC1NC(=O)C(=O)NCC1CCCO1 (stereo not drawn),"inconclusive: 1 µM [activator, full curve, poor fit]",
O=c1c2ccccc2ncn1-c1ccc(Cl)c(Cl)c1,"inconclusive: 0.251 µM [inhibitor, full curve, poor fit]",
